The test deals with VEGF165 (human) (UniProt P15692). The test can be described thus: ELISA with 500 pg human VEGF-A165, percent unbound VEGF, four-parameter logistic fit. A general note: ELISA stands for enzyme-linked immunosorbent assay.

Chains of the proteins cited; added tags and fusions are not shown. Lines headed by an entry give the natural chain unless they say otherwise; changes in a name come on top. A line that says so, or that is headed by a name, gives the form on record, which may keep a tag or linker.
VEGF165 (P15692, form named): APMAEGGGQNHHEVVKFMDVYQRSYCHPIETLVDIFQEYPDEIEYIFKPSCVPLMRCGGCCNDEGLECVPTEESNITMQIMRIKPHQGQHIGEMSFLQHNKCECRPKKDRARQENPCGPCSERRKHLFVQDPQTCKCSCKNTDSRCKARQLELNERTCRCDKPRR

These are yes or no findings as the source states them, for the method shown. Some entries that bind do so weakly or less than the wild type.

B1: conjugated multivalent VHH anti-VEGF antibody (28 VHH per 860 kDa hyaluronic acid) (other)
VHH: SNADVQLVESGGGLVQPGGSLRLSCAASGRTFSSYSMGWFRQAPGKEREFVVAISKGGYKYDAVSLEGRFTISRDNAKNTVYLQINSLRPEDTAVYYCASSRAYGSSRLRLADTYEYWGQGTLVTVSSSPSTPPTPSPSTPPGGCDDDDKHHHHHH
modifications: covalently conjugated to 860 kDa hyaluronic acid
As to B1, the binding entry is listed as “binds”.

B2: single-domain camelid (VHH) anti-VEGF antibody, unconjugated (VHH)
VHH: DVQLVESGGGLVQPGGSLRLSCAASGRTFSSYSMGWFRQAPGKEREFVVAISKGGYKYDAVSLEGRFTISRDNAKNTVYLQINSLRPEDTAVYYCASSRAYGSSRLRLADTYEYWGQGTLVTVSS
B2: the binding entry is given as “binds”.
